# Data as given in PubChem BioAssay AID686938 (Drosophila RNAi Screening Center, 2013)
# Screen: 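Knock-downs reducing store-operated calcium influx in Drosophila cells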 (primary screen)
# Cell system: Drosophila S2R+ cells
# Reagents: long dsRNA against Drosophila genes, about 0.25 µg dsRNA per well, roughly 10,000 cells
# Duration: 5 days of knock-down before the calcium assay
# Challenge: thapsigargin (SERCA pump blocker) to empty calcium stores; entry signal taken 4 min after adding it
# Measured: 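Duplicate raw fluo-4 intensities per well from a plate reader, at rest and four minutes after thapsigargin emptied calcium stores; entry-to-rest ratio filled for only some wells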
# Reading the numbers: calcium entry signal: higher = stronger calcium signal after store depletion; entry to resting ratio: higher = more calcium entry relative to resting level; resting calcium signal: higher = higher resting calcium signal
# Rule for the call: 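Called when the plate z-score of the entry-to-rest ratio, mean of duplicates, falls below −3; wells with low overall dye signal (Fmax z below −2) or more than five off-targets excluded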
# Calls: active = strongly reduced calcium entry; inactive = no strong reduction
# The deposit covers about 23,000 reagents; below is an unselected part of those that have a named target and a result. Over the whole deposit, 75 (0.33%) got an active call. 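Raw plate signals without normalisation; calls rest on plate z-scores that were not deposited; ratio present for only 364 wells.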 Unmarked entries are inactive. The numbers tell different reagents against one gene apart. No sequences are given here. Not given: the dose of the treatment.
gene,reagent no.,"calcium entry signal, replicate 1 (fluorescence units)","calcium entry signal, replicate 2 (fluorescence units)",entry to resting ratio,"resting calcium signal, replicate 1 (fluorescence units)","resting calcium signal, replicate 2 (fluorescence units)"
CG42820,1,4.64e7,5.51e7,,2.04e7,2.62e7
temp (tempura),1,3.53e7,3.68e7,,1.67e7,1.72e7
CG32379,1,2.72e7,4.19e7,,1.36e7,1.77e7
CG14154,1,2.56e7,3.18e7,,1.37e7,1.42e7
dyw (daywake),1,3.53e7,4.53e7,2.1,1.65e7,1.88e7
CG14983,1,3.83e7,4.98e7,,1.94e7,2.24e7
CR31292 (pseudo),1,3.94e7,3.50e7,,1.94e7,1.69e7
CG31787,1,2.47e7,2.75e7,,1.40e7,1.57e7
Acn (Acinus),1,5.47e7,,,2.79e7,
TbCMF46,1,3.48e7,4.55e7,,1.66e7,1.94e7
Acbp6 (Acyl-CoA binding protein 6),1,2.20e7,4.87e7,,1.06e7,2.03e7
msn (misshapen),1,4.35e7,4.81e7,,2.55e7,2.16e7
msn (misshapen),2,4.13e7,5.48e7,,2.18e7,2.38e7
Adar (Adenosine deaminase acting on RNA),1,3.77e7,4.64e7,2,1.90e7,1.99e7
galla-1,1,2.87e7,3.11e7,,1.43e7,1.58e7
exex (extra-extra),1,3.59e7,4.44e7,,1.73e7,1.96e7
CG11257,1,4.65e7,5.36e7,,2.04e7,2.57e7
CG9518,1,3.19e7,3.02e7,,1.71e7,1.47e7
CG7920,1,5.02e7,5.32e7,,2.19e7,2.37e7
CG7920,2,2.83e7,3.09e7,,1.51e7,1.46e7
Spx (Spliceosomal protein on the X),1,1.79e7,2.39e7,,1.33e7,1.73e7
Dyrk3 (Dual-specificity tyrosine phosphorylation-regulated kinase 3),1,5.45e7,3.93e7,,2.30e7,1.67e7
CG4597,1,3.10e7,5.10e7,,1.48e7,2.25e7
CG31007,1,3.68e7,4.55e7,,1.81e7,1.88e7
Eaf6 (Esa1-associated factor 6),1,3.49e7,4.77e7,,1.88e7,2.25e7
Nup133 (Nucleoporin 133kD),1,4.97e7,3.06e7,,2.61e7,1.64e7
Rpn1 (Regulatory particle non-ATPase 1),1,2.40e7,2.26e7,,2.05e7,1.47e7
Ir48c (Ionotropic receptor 48c),1,3.21e7,3.94e7,,2.02e7,2.06e7
Bx42,1,1.52e7,1.53e7,,1.01e7,9.68e6
CG31848,1,4.37e7,6.24e7,,2.12e7,2.60e7
lectin-29Ca,1,4.02e7,5.79e7,,1.99e7,2.52e7
CG43149,1,4.73e7,3.09e7,,2.06e7,1.50e7
Orc6 (Origin recognition complex subunit 6),1,3.53e7,3.72e7,,1.86e7,1.63e7
mRpL36 (mitochondrial ribosomal protein L36),1,3.92e7,3.81e7,,1.67e7,1.74e7
CG32201,1,3.09e7,2.86e7,,1.87e7,1.39e7
Cc2d2a (Coiled-coil and C2 domain containing 2A),1,5.05e7,5.47e7,,2.47e7,2.72e7
Cc2d2a (Coiled-coil and C2 domain containing 2A),2,5.16e7,6.36e7,,2.17e7,2.96e7
Mtr4 (Mtr4 helicase),1,2.13e7,,,1.61e7,
CG11777,1,4.02e7,3.78e7,,1.80e7,1.72e7
Opbp (Optix-binding protein),1,3.84e7,4.05e7,,2.07e7,1.92e7

2 entries from above, arranged by “resting calcium signal, replicate 1 (fluorescence units)”, ascending.
gene,reagent no.,"calcium entry signal, replicate 1 (fluorescence units)","calcium entry signal, replicate 2 (fluorescence units)",entry to resting ratio,"resting calcium signal, replicate 1 (fluorescence units)","resting calcium signal, replicate 2 (fluorescence units)"
CG14154,1,2.56e7,3.18e7,,1.37e7,1.42e7
dyw (daywake),1,3.53e7,4.53e7,2.1,1.65e7,1.88e7
